# Source: PubChem BioAssay AID1259254 (NCATS, 2017)
# Assay: 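Finding genes that stop cells copying their DNA twice in one cycle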 (primary screen)
# Cell system: human HCT116 colorectal cancer cells
# Reagents: single siRNA against human genes
# Timing: 3 days
# Measured: 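Imaged Hoechst DNA stain sorts each cell into a cycle phase by DNA amount; per plate, G2 fraction set to 0% for non-targeting and 100% for GMNN siRNA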
# Reading the numbers: G2 robust z-score and G2 cells, % of GMNN control: higher = more G2 cells, more excess DNA replication; raw share of cells in G2: higher = larger share of cells with G2 DNA content
# Call rule: 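An siRNA counts as active if its G2 robust z-score lies at least 5 MADs above the screen median; here such calls match roughly 38% of GMNN control or more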
# Shown is an unselected part of about 59,000 deposited reagents. About 1,550 of them (2.6%) count as active. 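G2 share is only a proxy for re-replication; each gene was hit by three separate siRNAs, and active genes were retested.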 The raw values are shown without normalisation. Unmarked entries are inactive. Reagents against one gene are numbered here. Not given: the amount of reagent.
gene symbol,reagent no.,G2 robust z-score,"G2 cells, % of GMNN control",raw share of cells in G2 (%)
RAB40C,1,-0.346,0.533,5.87
RAB40C,2,-0.622,-1.41,3.85
RAB40C,3,0.256,4.77,5.96
CPLANE1,1,1.42,13,6.12
CPLANE1,2,0.154,4.05,6.34
CPLANE1,3,-0.668,-1.73,3.83
HAAO,1,-0.0518,2.6,5.03
HAAO,2,1.35,12.5,8.14
HAAO,3,1.29,12.1,11.2
KRT25,1,1.84,15.9,9.17
KRT25,2,0.0527,3.34,3.94
KRT25,3,-0.413,0.0615,3.09
ZNF326,1,-0.6,-1.26,3.18
ZNF326,2,1.84,15.9,9.2
ZNF326,3,-1.01,-4.16,2
STYX,1,1.2,11.4,9.52
STYX,2,-0.635,-1.5,4.03
STYX,3,-0.521,-0.698,3.73
KRCC1,1,0.0854,3.57,4.37
KRCC1,2,-1.14,-5.08,1.78
KRCC1,3,-0.203,1.54,4.92
OR9A4,1,-0.0761,2.43,5.09
OR9A4,2,0.983,9.88,6.24
OR9A4,3,0.388,5.69,4.64
CTIF,1,-0.881,-3.23,3.87
CTIF,2,-0.355,0.468,4.14
CTIF,3,-0.496,-0.523,3.21
CAND2,1,-1.08,-4.63,1.99
CAND2,2,-0.939,-3.64,4.37
CAND2,3,-0.0177,2.84,4.53
FOXB2,1,-0.786,-2.56,3.96
FOXB2,2,1.85,16,12.8
FOXB2,3,-0.5,-0.549,4.08
HSP90AB1,1,-1.03,-4.27,1.76
HSP90AB1,2,-0.456,-0.239,4.73
HSP90AB1,3,-0.164,1.81,3.76
DRAP1,1,-0.388,0.24,3.61
DRAP1,2,-0.636,-1.51,5.32
DRAP1,3,-0.459,-0.264,3.23
HHIP-AS1,1,2.2,18.4,10.7
HHIP-AS1,2,2.44,20.2,10.7
HHIP-AS1,3,-0.511,-0.629,2.84
WWC1,1,-0.859,-3.08,3.26
WWC1,2,0.0848,3.56,5.48
WWC1,3,1.19,11.3,7.25
AJAP1,1,-0.32,0.715,4.7
AJAP1,2,1.28,12,9.34
AJAP1,3,-0.739,-2.23,5.45
LOC646482 (retired record),1,0.373,5.59,5.89
LOC646482 (retired record),2,-1.03,-4.27,1.64
LOC646482 (retired record),3,0.645,7.51,5.43
CANX,1,-0.304,0.825,3.79
CANX,2,-0.513,-0.643,4.55
CANX,3,-0.381,0.289,3.21
WARS2,1,-0.0703,2.47,7.45
WARS2,2,-0.266,1.09,4.19
WARS2,3,1.95,16.7,13
PADI2,1,1.71,15,12.4
PADI2,2,0.425,5.95,5.9
PADI2,3,-0.634,-1.49,3.66
SGK2,1,2.05,17.4,11
SGK2,2,-0.682,-1.83,4.53
SGK2,3,-0.713,-2.05,3.03
NRBP1,1,1.51,13.6,9.82
NRBP1,2,3.87,30.2,16.2
NRBP1,3,0.0624,3.41,4.77
PSME3IP1,1,2.41,19.9,12.7
PSME3IP1,2,-0.337,0.593,4.56
PSME3IP1,3,-0.871,-3.16,1.51

Individual results from the entries so far:
Under “raw share of cells in G2 (%)”, ZNF326 #3 shows 2
For “G2 cells, % of GMNN control”, CPLANE1 #3 has -1.73
KRCC1 #2, G2 robust z-score = -1.14
